Reference: the supplement of paper PMC10849652
Some of the results follow.

Amino acid sequences for entries named in this document (tags omitted). A change or cut given only in a name is not applied to a line headed by its entry.
UniProt Q7L5D6: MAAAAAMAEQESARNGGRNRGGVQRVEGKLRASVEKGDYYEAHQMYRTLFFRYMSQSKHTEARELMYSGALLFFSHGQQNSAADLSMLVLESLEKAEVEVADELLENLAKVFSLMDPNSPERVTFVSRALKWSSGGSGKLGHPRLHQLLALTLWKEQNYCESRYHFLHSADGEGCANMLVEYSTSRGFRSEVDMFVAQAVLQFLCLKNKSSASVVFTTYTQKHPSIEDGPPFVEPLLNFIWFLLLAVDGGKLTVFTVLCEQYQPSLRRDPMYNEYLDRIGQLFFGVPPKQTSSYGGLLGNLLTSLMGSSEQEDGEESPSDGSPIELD
UniProt O14976: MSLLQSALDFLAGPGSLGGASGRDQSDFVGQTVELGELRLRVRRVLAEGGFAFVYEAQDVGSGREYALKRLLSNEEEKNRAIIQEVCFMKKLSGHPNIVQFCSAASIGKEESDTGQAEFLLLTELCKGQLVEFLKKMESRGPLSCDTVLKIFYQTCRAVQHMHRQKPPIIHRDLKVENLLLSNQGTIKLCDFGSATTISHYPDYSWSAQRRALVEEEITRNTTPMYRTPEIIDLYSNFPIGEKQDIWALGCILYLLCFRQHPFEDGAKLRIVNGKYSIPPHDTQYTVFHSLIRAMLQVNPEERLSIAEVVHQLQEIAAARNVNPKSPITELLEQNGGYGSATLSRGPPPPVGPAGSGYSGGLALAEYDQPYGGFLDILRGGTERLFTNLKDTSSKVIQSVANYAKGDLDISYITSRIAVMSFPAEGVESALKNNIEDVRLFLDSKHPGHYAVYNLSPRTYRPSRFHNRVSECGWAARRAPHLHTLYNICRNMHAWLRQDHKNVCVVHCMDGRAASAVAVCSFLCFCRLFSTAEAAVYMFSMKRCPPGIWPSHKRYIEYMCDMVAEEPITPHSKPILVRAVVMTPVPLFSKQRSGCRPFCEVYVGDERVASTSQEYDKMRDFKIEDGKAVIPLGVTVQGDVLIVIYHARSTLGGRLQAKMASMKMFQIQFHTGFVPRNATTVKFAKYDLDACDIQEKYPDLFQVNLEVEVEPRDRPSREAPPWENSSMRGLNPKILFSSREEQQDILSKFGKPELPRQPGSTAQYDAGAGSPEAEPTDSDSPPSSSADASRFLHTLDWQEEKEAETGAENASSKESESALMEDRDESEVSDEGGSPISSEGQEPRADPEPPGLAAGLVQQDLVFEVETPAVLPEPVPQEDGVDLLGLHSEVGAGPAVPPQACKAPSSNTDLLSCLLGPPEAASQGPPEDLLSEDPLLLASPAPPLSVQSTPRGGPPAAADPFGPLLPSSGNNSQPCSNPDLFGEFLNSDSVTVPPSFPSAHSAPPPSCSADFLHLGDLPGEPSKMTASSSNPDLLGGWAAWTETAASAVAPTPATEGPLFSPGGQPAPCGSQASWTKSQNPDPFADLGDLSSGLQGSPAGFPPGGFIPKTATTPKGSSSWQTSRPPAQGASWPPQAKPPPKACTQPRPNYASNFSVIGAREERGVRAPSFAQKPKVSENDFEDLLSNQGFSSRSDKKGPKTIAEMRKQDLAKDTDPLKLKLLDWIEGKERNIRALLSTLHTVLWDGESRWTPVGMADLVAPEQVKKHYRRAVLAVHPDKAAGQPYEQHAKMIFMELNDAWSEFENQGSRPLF
UniProt Q01167: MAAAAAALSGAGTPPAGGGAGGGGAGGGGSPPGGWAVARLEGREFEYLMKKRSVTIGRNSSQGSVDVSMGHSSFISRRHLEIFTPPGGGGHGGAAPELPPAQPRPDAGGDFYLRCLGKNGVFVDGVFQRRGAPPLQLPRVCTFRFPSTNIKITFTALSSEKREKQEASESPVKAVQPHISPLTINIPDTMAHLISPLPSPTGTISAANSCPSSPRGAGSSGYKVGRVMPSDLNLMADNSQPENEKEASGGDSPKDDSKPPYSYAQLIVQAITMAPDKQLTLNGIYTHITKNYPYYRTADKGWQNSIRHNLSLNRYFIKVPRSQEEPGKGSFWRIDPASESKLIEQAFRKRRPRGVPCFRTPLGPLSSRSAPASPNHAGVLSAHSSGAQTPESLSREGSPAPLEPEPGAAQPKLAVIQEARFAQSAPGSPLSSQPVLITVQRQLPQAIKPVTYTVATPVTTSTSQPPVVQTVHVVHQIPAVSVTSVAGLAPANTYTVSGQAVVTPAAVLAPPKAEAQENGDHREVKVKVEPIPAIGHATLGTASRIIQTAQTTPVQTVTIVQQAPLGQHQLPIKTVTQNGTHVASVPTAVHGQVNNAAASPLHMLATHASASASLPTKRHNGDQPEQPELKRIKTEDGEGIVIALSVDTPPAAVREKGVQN
UniProt Q8IXK2: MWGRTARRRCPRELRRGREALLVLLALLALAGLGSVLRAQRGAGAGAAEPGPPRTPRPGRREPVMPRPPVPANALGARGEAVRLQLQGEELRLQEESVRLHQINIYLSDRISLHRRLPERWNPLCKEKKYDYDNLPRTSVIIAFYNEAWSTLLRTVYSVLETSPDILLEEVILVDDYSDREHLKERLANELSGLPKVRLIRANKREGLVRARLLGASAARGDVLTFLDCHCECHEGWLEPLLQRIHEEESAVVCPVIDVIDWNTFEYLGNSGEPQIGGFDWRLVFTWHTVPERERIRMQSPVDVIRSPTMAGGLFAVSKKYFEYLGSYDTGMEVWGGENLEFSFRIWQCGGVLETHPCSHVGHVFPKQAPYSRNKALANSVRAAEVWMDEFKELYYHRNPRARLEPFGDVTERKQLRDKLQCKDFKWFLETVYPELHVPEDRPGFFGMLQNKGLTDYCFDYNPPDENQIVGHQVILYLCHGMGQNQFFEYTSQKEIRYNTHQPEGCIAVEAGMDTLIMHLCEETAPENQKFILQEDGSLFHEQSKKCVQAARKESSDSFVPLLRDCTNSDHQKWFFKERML
UniProt P30047: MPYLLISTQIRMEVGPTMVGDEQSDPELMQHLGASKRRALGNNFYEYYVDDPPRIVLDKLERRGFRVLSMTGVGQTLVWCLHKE
UniProt Q8N4A0: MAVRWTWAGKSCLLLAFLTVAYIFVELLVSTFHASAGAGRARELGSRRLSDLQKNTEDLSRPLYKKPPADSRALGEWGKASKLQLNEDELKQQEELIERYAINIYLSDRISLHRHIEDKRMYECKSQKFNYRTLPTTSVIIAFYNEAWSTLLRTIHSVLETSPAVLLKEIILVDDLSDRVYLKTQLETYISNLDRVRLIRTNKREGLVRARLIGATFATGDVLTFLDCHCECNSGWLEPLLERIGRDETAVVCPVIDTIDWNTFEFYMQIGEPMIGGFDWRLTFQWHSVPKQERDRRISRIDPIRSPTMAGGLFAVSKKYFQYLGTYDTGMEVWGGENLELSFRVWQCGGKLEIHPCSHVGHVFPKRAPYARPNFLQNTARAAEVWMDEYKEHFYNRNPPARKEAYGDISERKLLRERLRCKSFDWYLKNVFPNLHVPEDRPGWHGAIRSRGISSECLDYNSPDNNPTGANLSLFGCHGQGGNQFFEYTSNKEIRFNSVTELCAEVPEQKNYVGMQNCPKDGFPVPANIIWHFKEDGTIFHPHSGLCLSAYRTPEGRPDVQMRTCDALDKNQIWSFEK
UniProt Q9C0B1, whole entry, looked up: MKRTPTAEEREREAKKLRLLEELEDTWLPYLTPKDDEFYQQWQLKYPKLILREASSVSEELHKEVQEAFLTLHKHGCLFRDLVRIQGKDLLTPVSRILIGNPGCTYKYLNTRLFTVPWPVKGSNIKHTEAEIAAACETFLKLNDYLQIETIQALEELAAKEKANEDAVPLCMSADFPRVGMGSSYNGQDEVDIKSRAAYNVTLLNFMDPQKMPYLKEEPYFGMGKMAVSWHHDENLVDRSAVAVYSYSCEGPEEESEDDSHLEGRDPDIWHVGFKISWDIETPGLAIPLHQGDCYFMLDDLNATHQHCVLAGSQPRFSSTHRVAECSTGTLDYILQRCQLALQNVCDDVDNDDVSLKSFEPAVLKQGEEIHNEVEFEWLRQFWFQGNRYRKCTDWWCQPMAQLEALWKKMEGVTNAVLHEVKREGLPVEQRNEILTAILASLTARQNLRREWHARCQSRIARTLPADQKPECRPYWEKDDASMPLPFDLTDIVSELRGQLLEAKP
UniProt P85037: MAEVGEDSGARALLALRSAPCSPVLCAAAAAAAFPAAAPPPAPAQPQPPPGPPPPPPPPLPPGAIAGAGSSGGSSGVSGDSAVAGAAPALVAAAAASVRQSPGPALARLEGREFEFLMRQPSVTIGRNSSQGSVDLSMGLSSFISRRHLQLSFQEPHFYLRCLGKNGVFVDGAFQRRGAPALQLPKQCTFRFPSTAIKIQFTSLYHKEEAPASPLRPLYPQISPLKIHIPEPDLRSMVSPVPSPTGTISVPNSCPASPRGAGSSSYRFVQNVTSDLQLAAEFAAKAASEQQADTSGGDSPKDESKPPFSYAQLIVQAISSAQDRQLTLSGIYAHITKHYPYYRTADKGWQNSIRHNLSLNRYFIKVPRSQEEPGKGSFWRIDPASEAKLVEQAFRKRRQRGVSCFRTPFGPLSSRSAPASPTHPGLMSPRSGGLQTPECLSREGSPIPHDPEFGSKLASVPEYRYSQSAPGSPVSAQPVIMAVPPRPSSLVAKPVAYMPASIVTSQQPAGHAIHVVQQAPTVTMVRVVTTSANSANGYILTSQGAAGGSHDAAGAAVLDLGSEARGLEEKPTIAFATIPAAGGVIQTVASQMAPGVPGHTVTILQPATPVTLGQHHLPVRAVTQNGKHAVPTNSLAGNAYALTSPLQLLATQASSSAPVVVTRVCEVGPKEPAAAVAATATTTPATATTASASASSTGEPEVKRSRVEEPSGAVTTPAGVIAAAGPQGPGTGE

Key:
Experiment in all cases: log2 fold change, soluble protein after heating vs DMSO (PISA); higher = thermal stabilisation; K562 lysate, 10 uM; active = over 0.2 and 3.5 SD of the protein, either way, in both replicates (recomputed)
[1] = compound: C1=CC=C(C=C1)[C@H](COC2=CC3=C(C=C2)NC(=O)N3)NC(=O)C4=CC=CN(C4=O)CC5=CC(=C(C=C5)F)F
Outline: (§1)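 K562 pellets were dounce-homogenised in PBS pH 7.4 containing 1 mM MgCl2, and the crude extract, at 1 mg/mL protein, was exposed to 10 μM compound for 30 min. Aliquots were heated for 3 min across 48°C-58°C, pooled, brought to 0.5% NP-40 at 4°C and spun at 21,000xg for 90 min, with the supernatant taken as soluble protein. TMTpro 16plex LC-MS/MS with equalised channel sums quantified that protein. Values are log-two fold changes in thermal stability relative to solvent controls, taken from duplicates.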

[2] = compound: CC1=C(SC2=C1C(=N[C@H](C3=NN=C(N32)C)CC(=O)N)C4=CC=C(C=C4)Cl)C
Outline: as §1

[3] = compound: CC1=C2C(=CC=C1)N=C(N(C2=O)C3=CC=CC=C3C)CN4C=NC5=C(N=CN=C54)N
Outline: as §1

[4] = compound: Cc1sc2c(c1C)C(c1ccc(Cl)cc1)=N[C@@H](CC(=O)OC(C)(C)C)c1nnc(C)n1-2
Outline: as §1

[5] = compound: c1ccc([C@@H]2C[C@H]2NC2CCNCC2)cc1
Outline: as §1

Measured: log2 fold change

GET4 (UniProt Q7L5D6)
inactive: [1] -0.015 | [2] -0.045 | [3] 0.036 | [4] -0.008 | [5] 0.032

GAK (UniProt O14976)
inactive: [1] -0.208 | [2] -0.123 | [3] -0.16 | [4] -0.092 | [5] -0.188

FOXK2 (UniProt Q01167)
inactive: [1] 0.017 | [2] -0.019 | [3] -0.015 | [4] -0.06 | [5] 0.005

GALNT12 (UniProt Q8IXK2)
inactive: [1] 0.017 | [2] -0.021 | [3] 0.018 | [4] -0.025 | [5] 0.007

GCHFR (UniProt P30047)
inactive: [1] 0.122 | [2] -0.016 | [3] -0.045 | [4] -0.062 | [5] 0.004

Two neighbouring entries already listed, for reference:
GET4 (UniProt Q7L5D6)
inactive: [1] -0.015 | [2] -0.045 | [3] 0.036 | [4] -0.008 | [5] 0.032

GAK (UniProt O14976)
inactive: [1] -0.208 | [2] -0.123 | [3] -0.16 | [4] -0.092 | [5] -0.188

Additional results follow.

GAMT (UniProt Q14353)
inactive: [1] -0.025 | [2] -0.083 | [3] -0.002 | [4] 0.114 | [5] 0.005

GALNT4 (UniProt Q8N4A0)
inactive: [1] 0.112 | [2] 0.02 | [3] 0.063 | [4] 0.046 | [5] 0.023

FTO (UniProt Q9C0B1)
inactive: [1] 0 | [2] -0.005 | [3] 0.008 | [4] -0.037 | [5] -0.025

FOXK1 (UniProt P85037)
inactive: [1] 0.022 | [2] 0.017 | [3] -0.001 | [4] 0.032 | [5] -0.009
